# Assay results published in PubChem BioAssay AID2734 (National Center for Advancing Translational Sciences (NCATS), 2010).
# This list was built around the results that the source calls inconclusive (neither active nor inactive); the mix of calls is not that of the screen. Potencies of inconclusive entries are doubtful fits and often do not repeat. Activity calls are given as the source filed them. The call rests on the fitted dose curve; in most records, active means well fitted inhibition curve with a large enough effect; inconclusive means small, poorly fitted or top-dose-only effect, or effect the other way; inactive means no such curve, though single readings can be large or run the other way.
# Assay: High Content Assay for Compounds that inhibit the Assembly of the Perinucleolar Compartment: DNA Intercalation/PicoGreen Displacement Assay
# Conditions: fluorescence (intercalation counter-screen); series mostly up to 57.1 µM; activity change, negative = displacement: at the top concentration
# Description: High Content Assay for Compounds that inhibit the Assembly of the Perinucleolar Compartment
# NIH Chemical Genomics Center [NCGC]
# NIH Molecular Libraries Probe Centers Network [MLPCN]
# Assay Submitter (PI): Sui Huang, Northwestern University, Feinberg School of Medicine, Cell and Molecular Biology, Chicago, Illinois.
# The perinucleolar compartment (PNC) is a non-membrane-bound nuclear subdomain that is associated with but structurally distinct from the nucleolus. The PNC is a heritable trait, in which the number of PNCs per cell in daughter cells often mimics that of their mother cells. The PNC is heterogeneous in shape, is stable through interphase, disassembles during mitosis, and reassembles in early G1. The PNC is concentrated with newly synthesized RNA polymerase III (pol III) RNAs (MRP RNA, RNAse P H1 RNA, hY RNAs[hY1, 2, 5], Alu RNA, and SRP [7SL] RNA) and RNA binding proteins (nucleolin, PTB, CUG-BP, KSRP, Raver1, Raver2, and Rod).
# Extensive in vitro studies have shown that the PNC is unique to tumor cells and preferentially forms in tumor cells derived from solid tissues. Examination of cancer cell lines from various origins and malignant capacities has shown that PNC prevalence correlates with the malignancy of tumors and has the potential to be developed as a pan-cancer prognostic marker.
# Although the PNC is associated with a DNA locus and a handful of components have been identified, much remains to be investigated regarding the structure and function of the PNC and its mechanistic link to cancer. We have previously shown that PNC prevalence reduction is a valid strategy to identify compounds that can be used to study the structure and function of the PNC. It is necessary, however, to create a screening platform that is able to test a large number of compounds in an automated fashion. Here we report the development and robustness of an automated whole-cell phenotypic image-based screening assay that is capable of identifying such compounds.
# Therefore, we conducted a DNA intercalation/displacement assay on the lead candidates in order to exclude compounds with this mechanism of action. PicoGreen is a DNA intercalator that becomes excitable at 488 nm and emits at 520 nm when bound to DNA. Compounds which displace the dye will decrease fluorescence intensity and were considered DNA intercalators/displacers. In order to rule out potential fluorescence artifacts, a measurement of compound plus DNA only was also calculated.
# 1. A supercoiled plasmid (pBR322) was diluted to 200 ng/ml in TE and 2 ul was dispensed into 1536 well black plates Multidrop Combi.(ThermoFisher).
# 2. Followup compounds dissolved in 100% DMSO were transferred using a pintool (23 nl).
# 3. Compounds were incubated in the presence of DNA for 30 minutes at room temperature.
# 4. A baseline signal was measured using an Envision PMT based plate reader using a 488 nm excitation filter and a 520 nm emission filter.
# 5. The PicoGreen dye (Invitrogen) was diluted in TE and 2 ul/well was dispensed to the 1536 well plate using a Multidrop Combi.
# 6. Plates were incubated at 37 C for 10 minutes prior to being read on the envision plate reader. 100 ng/ml of Propidium Iodide was used as the positive intercalation control.
Compound,Potency,"activity change, negative = displacement"
O=C1C(Nc2ccccc2)=C/C(=N/S(=O)(=O)c2cccs2)c2ccccc21,active: 2.82 µM,
O=C(N/N=C/c1cc(Cl)ccc1O)C(=O)Nc1ccccc1OC(F)(F)C(F)F,"inconclusive: 39.8 µM [activator, partial curve]",
C=CCNC(=S)N/N=C(\C)c1ccccn1,"inconclusive: 0.891 µM [inhibitor, partial curve]",
Cc1cc(C(=O)COc2ccccc2Cl)c(C)n1-c1ccc2c(c1)OCO2,"inconclusive: 35.5 µM [activator, partial curve]",
CCCCN(C(=O)Nc1ccc(Cl)cc1)C1CCN(C(C)=O)CC1,"inconclusive: 2.24 µM [activator, full curve, poor fit]",
CC(=O)Nc1ccc(S(=O)(=O)Oc2ccc3c(c2)C(C)=CC(C)(C)N3)cc1,,inactive: -2.67%
CC(=O)c1c(C)cc(C)c(CSc2nc(C)cc(=O)[nH]2)c1C,"inconclusive: 1.78 µM [inhibitor, partial curve]",
Cc1cc(C(=O)Cn2nnc3ccccc3c2=O)c(C)n1-c1ccccc1F,"inconclusive: 39.8 µM [activator, partial curve]",
CC1(c2cccc([N+](=O)[O-])c2)CC(C)(C)N(C(=O)c2ccccc2)c2ccccc21 (stereo not given),"inconclusive: 0.631 µM [inhibitor, full curve]",
CN(C)C(=O)COC(=O)c1ccccc1Nc1ccc(SC(F)F)cc1,"inconclusive: 0.112 µM [inhibitor, full curve, poor fit]",
C#CCn1c(S(=O)(=O)Cc2ccc(F)cc2)nc(-c2ccccc2)c1-c1ccccc1,"inconclusive: 39.8 µM [activator, single point]",
Cc1cc(=O)[nH]c(N=N/C(=N/Nc2ccccc2C)c2ccccc2)n1,active: 2 µM,
CCOC(=O)Cn1c(-c2nonc2NC(=O)c2ccccc2F)nc2ccccc21,"inconclusive: 20 µM [activator, partial curve, poor fit]",
CCCSc1cc(N2CCN(C)CC2)nc(-c2ccc(OC)cc2)n1,"inconclusive: 35.5 µM [activator, partial curve]",
Cc1cccc(C)c1Nc1c(-c2ccc(N3CCOCC3)cc2)nc2ncccn12,"inconclusive: 35.5 µM [activator, partial curve]",
Cc1ccc(NC2=C/C(=N/S(=O)(=O)c3cccs3)c3ccccc3C2=O)cc1,active: 3.55 µM,
COc1ccc(C(=O)Nc2nc3c(s2)CCCC3)cc1S(=O)(=O)N1CCCc2ccccc21,"inconclusive: 39.8 µM [activator, partial curve]",
CCOC(=O)c1c(NC(=O)c2c(-c3ccccc3)noc2C)sc(C)c1-c1ccccc1,,inactive: 11.5%
COC(=O)C1=C(C)N(c2ccc(Br)cc2)C(=O)/C1=C\c1ccco1,"inconclusive: 2.51 µM [activator, partial curve, poor fit]",
CNS(=O)(=O)c1cccc(C(=O)Nc2cccc(Cl)c2)c1,"inconclusive: 0.794 µM [inhibitor, full curve]",

Compound,Potency,"activity change, negative = displacement"
C/C(=N/OCO/N=C(/C)c1ccc(F)cc1)c1ccc(F)cc1,,inactive: 11.4%
COc1cc(NC(=S)NC(=O)c2ccc(C(C)(C)C)cc2)ccc1NC(=O)c1cccs1,"inconclusive: 35.5 µM [activator, partial curve]",
COc1ccc(/C=C/C(=O)OCC(=O)Nc2ccc(Cl)c(S(=O)(=O)N(C)C)c2)cc1OC,"inconclusive: 39.8 µM [activator, single point]",
COc1ccc2nc3sc(C(=O)NCCCN4CCc5ccccc5C4)cc3cc2c1,"inconclusive: 8.91 µM [activator, full curve]",
COc1ccc(-c2csc(NC(=O)c3ccc(OCC(=O)N4CCOCC4)c(OC)c3)n2)cc1,"inconclusive: 31.6 µM [activator, partial curve, poor fit]",
O=c1[nH]cnc2c1C(c1ccccc1[N+](=O)[O-])c1c(nc[nH]c1=O)O2,,inactive: 6.43%
CC(C)(C)c1nc(SCC(=O)Nc2nc3c(s2)CCCC3)c2ccccc2n1,"inconclusive: 0.562 µM [inhibitor, full curve, poor fit]",
CN1c2ccccc2C(C)(C)C12CC(c1ccc(Cl)c(S(=O)(=O)N3CCCC3)c1)=NO2 (stereo not given),"inconclusive: 20 µM [activator, partial curve]",
C#CCn1c(S(=O)(=O)Cc2ccc(C)cc2)nc(-c2ccccc2)c1-c1ccccc1,"inconclusive: 39.8 µM [activator, partial curve]",
COc1cc(C(=O)Oc2ccccc2/C=N/NC(=O)c2ccc(Cl)cc2)cc(OC)c1OC,"inconclusive: 39.8 µM [activator, partial curve]",
N=c1c2c(-c3ccccc3)c(-c3ccccc3)n(Cc3ccco3)c2ncn1CCCn1ccnc1,"inconclusive: 15.8 µM [activator, full curve]",
O=C(Nc1cccc(S(=O)(=O)N2CCCCCC2)c1)c1ccc2c(c1)OCO2,"inconclusive: 35.5 µM [activator, single point]",
Nc1cccc2nc3ccccc3cc12,"inconclusive: 6.31 µM [inhibitor, full curve]",
O=[N+]([O-])c1cc(/C=N/Nc2nc3ccccc3[nH]2)c(O)cc1O,active: 22.4 µM,
CCN(CC)C(=S)SSC(=S)N(CC)CC,,inactive: 36%
CN(C)c1nc(OCCNC(=O)COc2ccccc2Cl)nc(N(C)C)n1,"inconclusive: 31.6 µM [activator, partial curve]",
Cc1ccc(NC(=S)NCCc2ccc(S(N)(=O)=O)cc2)cc1C,"inconclusive: 11.2 µM [activator, partial curve, poor fit]",
COC(=O)c1c(-c2ccccc2)csc1NC(=O)c1c(-c2ccccc2)noc1C,"inconclusive: 35.5 µM [activator, partial curve]",
Cn1c2ccccc2c(=O)c2c(=O)n(Cc3ccco3)c(COc3ccccc3)nc21,"inconclusive: 35.5 µM [activator, partial curve]",
CCOc1ccc(CN(C)CC(=O)Nc2cc(OC)c([N+](=O)[O-])cc2C)cc1,"inconclusive: 25.1 µM [activator, partial curve]",

# By substructure: those above with a tert-butyl group
Compound,Potency,"activity change, negative = displacement"
COc1cc(NC(=S)NC(=O)c2ccc(C(C)(C)C)cc2)ccc1NC(=O)c1cccs1,"inconclusive: 35.5 µM [activator, partial curve]",
CC(C)(C)c1nc(SCC(=O)Nc2nc3c(s2)CCCC3)c2ccccc2n1,"inconclusive: 0.562 µM [inhibitor, full curve, poor fit]",
